From PubChem BioAssay AID1508600 (Functional Genomics Laboratory (NCATS/FGL), 2020)
About 3,700 (7%) of roughly 53,000 sequences were called active.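 How the source made its calls: active means gene knockdowns whose robust z-score for IL-1 alpha signal is at least 2 or at most -2, so actives lie on both sides; inactive means the rest.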 The list shows a part of the results.

Experiment: Components of the Cytosolic LPS Sensing Pathway: Gene Identification via Genome-wide siRNA Screen;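 further: robust z of the log signal after scaling to non-targeting control siRNA wells of the plate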
Conditions: RAW264.7 macrophages, IL-1a HTRF, actives lie on both sides, screened at 100 nM (by protocol), cells primed 5 h with Pam3CSK4 first
How it was run: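 IL-1a HTRF of supernatants after 24 hour LipidA transfection of Pam3CSK4-primed (5 hours) RAW264.7 cells, 48h post-siRNA transfection (100 nM). Scores: percent of plate negative-control median, then log-based robust z-score.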

Row | Sequence | z-score
1 | GGUCUUCUGAAGAUGGCGUTT against Pja2 | inactive: 1.39
2 | CGCCAAUGUGAUUAAACUATT against Mak | active: 2.01
3 | GGGCUUUAUGCAGACCUACTT against Apoc4 | inactive: -1.8
4 | GCCCUAUAACAACCUCAAGTT against Cdk10 | inactive: -0.695
5 | GCAUGAGACUGUGAACCAGTT against Efnb1 | inactive: -1.72
6 | CGUGGUCGUGAGAUGUUUGTT against Chid1 | inactive: 1.35
7 | GGAGCAAGCACCUAUACUCTT against 1700029M20Rik | inactive: -0.117
8 | GCCUGCCUACGAGAUCAACTT against Mgp | inactive: -0.0804
9 | GGAGAACAAAGUAUUGGUGTT against Cacna1f | inactive: 0.388
10 | CCCUGUUUGGCAAUAACAATT against Nup98 | inactive: -1.61
11 | CCGUGUGCAUUUACGGGCATT against Cndp2 | inactive: 0.318
12 | GGUUUUUGAUAAUUGCCAUTT against Gcsh | inactive: -1.98
13 | GGCUGUGUUCUAAUCAGUATT against Gad2 | inactive: 0.119
14 | GGCCAAAUUUAUAAUGAACTT against Rsl24d1 | inactive: 1.16
15 | GCCAACAUGUAUCAAAGCUTT against Rpgr | inactive: -1.11
16 | GGACUCACAGAAAUUUCCATT against Slc36a1 | inactive: -1.53
17 | GUUUCUUCCAAACUCCAUCTT against Olfr487 | inactive: 0.622
18 | GGCGGAUCUCUUGAGUGUUTT against Glyctk | inactive: 0.213
19 | GGGUCAUUGGUAGCAACGATT against Oas1g | active: -2.9
20 | GGAACCUAUCAUGAUGAAATT against Pter | inactive: -0.607
21 | CCAGUGAUCAGUUUUAACGTT against Adamts20 | inactive: 0.184
22 | GGCUGGAGUAGAAAAGGGATT against Lamtor2 | inactive: -0.909
23 | GGCAAUGCUGCAUCUCCUATT against Fbln2 | inactive: -0.151

Row | Sequence | z-score
24 | GGUUCUACAUUGGCGAGAUTT against Cdc42bpb | inactive: -0.794
25 | CGUACAACCUCAAGGUUCUTT against Lag3 | inactive: -1.68
26 | CCAAAGAAGGACUUAGAUUTT against Ddx50 | inactive: -0.462
27 | GCUCAGAUAUGAGCAAGCUTT against Fadd | inactive: 0.0462
28 | GGAGACUCCAUACCAGUGUTT against Zfp329 | inactive: 1.78
29 | CGUAACUUUUUGCAUUUGATT against Trpa1 | inactive: 0.116
30 | GGGUUGCUUCAACUUUUAGTT against Mpp1 | inactive: -0.346
31 | GGUAAUGGAAAUGAACAAATT against Zfp353-ps | inactive: 0.381
32 | GGGAAUUACAGCACACAAUTT against Treml4 | inactive: -0.21
33 | CGCAGUACAUACAACUGUGTT against Art1 | inactive: 1.33
34 | CGUGGUGGUUGUUCGAGUATT against Rimkla | inactive: 0.737
35 | GCAUUAGAACAAAGGAUGCTT against Rps19 | inactive: 0.278
36 | GGAUUGUGGUCCAUGAAUATT against Tmprss7 | inactive: -1.65
37 | GGGAUACCAUGGGAAUAGUTT against Vps52 | inactive: 0.908
38 | GUACCACGGAUCUCUUCAUTT against Galr3 | inactive: 0.264
39 | GCGAGUUUUUGGAUGGUAGTT against Slc4a3 | inactive: 0.243
40 | GGAGAGAAGUGCUACAUCATT against Cnmd | inactive: 1.03
41 | CCAAUUAGCCCAAAGAAACTT against Sec14l2 | inactive: 0.609
42 | GGCUAACCGUAUCAGUCAUTT against Podnl1 | inactive: -1.23
43 | CCCAACACAAGGUGUGAGGTT against Ift22 | inactive: -1.1
44 | GCUGGAUGGCACUUAUGACTT against Slc45a3 | inactive: -0.414
45 | GGUGUACGAGAUCCAGGACTT against Eif3l | inactive: -0.699
46 | GCCUGUUAAUAUGCUGUAATT against Gpr83 | inactive: -0.0705

Reformatted as tab-separated lines: entries from further up.
Row	Sequence	z-score
29	CGUAACUUUUUGCAUUUGATT against Trpa1	inactive: 0.116
30	GGGUUGCUUCAACUUUUAGTT against Mpp1	inactive: -0.346
31	GGUAAUGGAAAUGAACAAATT against Zfp353-ps	inactive: 0.381
32	GGGAAUUACAGCACACAAUTT against Treml4	inactive: -0.21
33	CGCAGUACAUACAACUGUGTT against Art1	inactive: 1.33
34	CGUGGUGGUUGUUCGAGUATT against Rimkla	inactive: 0.737
35	GCAUUAGAACAAAGGAUGCTT against Rps19	inactive: 0.278
36	GGAUUGUGGUCCAUGAAUATT against Tmprss7	inactive: -1.65
37	GGGAUACCAUGGGAAUAGUTT against Vps52	inactive: 0.908
38	GUACCACGGAUCUCUUCAUTT against Galr3	inactive: 0.264
39	GCGAGUUUUUGGAUGGUAGTT against Slc4a3	inactive: 0.243
40	GGAGAGAAGUGCUACAUCATT against Cnmd	inactive: 1.03
41	CCAAUUAGCCCAAAGAAACTT against Sec14l2	inactive: 0.609
42	GGCUAACCGUAUCAGUCAUTT against Podnl1	inactive: -1.23
43	CCCAACACAAGGUGUGAGGTT against Ift22	inactive: -1.1

Continued:

Row | Sequence | z-score
47 | GUUCCAUAUGGAGCUUGUCTT against Olfr401 | inactive: 0.401
48 | GGUCACAAUUGCGCUAUGATT against Ric8b | inactive: -0.752
49 | GGAGAAACUCUAGAAUUGATT against Mdga2 | inactive: -1.36
50 | CCCUUUGAACUUUCCACACTT against Gm11545 | inactive: -1.79
51 | GGAGAAGAUAGAAGCUGAGTT against Rad23a | inactive: -1.66
52 | GGUGCAAUCAGCUUUCCACTT against Olfr1336 | active: 2.26
53 | GGUUUACCAGGCACUGCUCTT against Atp2b2 | inactive: 0.845
54 | GGUUUUUCAGUGACACAUGTT against Vmn1r192 | active: 2.26
55 | GCAUGCUUCAAGCCCUAGATT against Evc2 | inactive: 1.4
56 | GGAGAAACAGUAAAGAAGATT against Pcbp3 | inactive: 0.205
57 | GGGCCUCUCUCAGUGACAUTT against C1qtnf9 | inactive: 0.617
58 | GAUGAAACCAAAGAAUGGCTT against Ano10 | inactive: -1.22
59 | GAGUUCAUCAGAGUGUAGCTT against Ndufs7 | inactive: 0.897
60 | GGCUGUUGUGCAGACUACATT against Tmem209 | inactive: 0.573
61 | GGGAAAACAGCAAAUAAUUTT against Necab1 | inactive: 1.21
62 | GGAUCAGUGGUAUUGGUUCTT against Krt75 | inactive: -0.0128
63 | GGAAAAAGUUGGCAUCAUUTT against Zswim4 | inactive: -0.0485
64 | CGCCACUGCUUUGAUUACUTT against Coa5 | inactive: -1.51
65 | GGAAGUGGCCACAUGUGAATT against E230025N22Rik | inactive: -0.404
66 | GCAGUGGUAGAUCUUAGAGTT against Lmcd1 | inactive: 1.07
67 | GGAUGAGUUUUUAAAGUCATT against Otop2 | inactive: -0.883
68 | CGCUUAUCAUGAACAAAGATT against C8b | inactive: -0.621
